PubChem BioAssay AID504764 | Drosophila RNAi Screening Center – 2011

- Test: 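Knock-downs that raise or lower a Notch target reporter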 (primary screen)
- System: Drosophila Kc167 cells
- Reagent: long dsRNA against Drosophila genes
- Timing: about 5 days (4 days dsRNA, then 24 h after transfection)
- Treatment: transfection of constitutively active membrane-tethered Notch lacking the extracellular domain, read 24 h later
- Measurement: 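Firefly luciferase from an E(spl)m3 reporter with active Notch, plus control-promoter and uninduced reporter wells for normalisation; unnormalised counts, duplicate wells a and b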
- Reading the numbers: induced reporter light, run 1, well a and induced reporter light, run 1, well b: higher = more light from the Notch target reporter with active Notch; control promoter light, run 1, well a and control promoter light, run 1, well b: higher = more light from the viral control promoter (cell number, transfection, viability); uninduced reporter light, run 1, well a: higher = more light from the Notch target reporter without active Notch
- Hit rule: 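Hit if the duplicate-averaged log2 ratio of induced to control-promoter light gives a plate-wise z beyond ±2, or induced to uninduced beyond ±1.8; weak-control or discordant-duplicate wells dropped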
- Calls: active = modifier hit (raised or lowered Notch signal); inactive = not a hit
In all, the deposit lists about 22,000 reagents; below is a random part of those with a known target gene and a result. Over the whole deposit, 403 (1.9%) were called active. 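Unnormalised raw counts per well; ratio z-scores behind the hit calls and whether each hit raises or lowers signal are not deposited.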 A plus sign joins genes that one reagent is predicted to hit. Not given: the amount of reagent.

predicted target | DRSC id | induced reporter light, run 1, well a | induced reporter light, run 1, well b | control promoter light, run 1, well a | control promoter light, run 1, well b | uninduced reporter light, run 1, well a | outcome
CG7607 (GeneID 39263) | DRSC10889 | 1.27e5 | 1.34e5 | 2.62e5 | 1.64e5 | 7985 | inactive
CG3213 (GeneID 33574) | DRSC00576 | 69675 | 46990 | 56195 | 54745 | 3305 | inactive
CG12539 (GeneID 32412) | DRSC19470 | 88625 | 70950 | 1.01e5 | 75830 | 11070 | inactive
PGRP-SC1a (GeneID 35859) | DRSC06482 | 1.99e5 | 1.89e5 | 2.14e5 | 2.14e5 | 16785 | inactive
CG30377 (GeneID 50252) | DRSC06477 | 1.42e5 | 1.36e5 | 1.65e5 | 1.35e5 | 12150 | inactive
CG30377 (GeneID 50252) | DRSC06799 | 26830 | 26725 | 30755 | 27410 | 7150 | inactive
Smn (GeneID 39844) | DRSC10223 | 1.49e5 | 1.31e5 | 1.23e5 | 1.32e5 | 10890 | inactive
CG14115 (GeneID 39487) | DRSC10118 | 1.25e5 | 1.17e5 | 1.73e5 | 1.37e5 | 6815 | inactive
hubl (GeneID 246567) | DRSC06825 | 1.59e5 | 1.60e5 | 1.78e5 | 1.58e5 | 14805 | inactive
CG12863 (GeneID 36623) | DRSC06203 | 94580 | 93990 | 1.31e5 | 99500 | 8720 | inactive
Dys + snoRNA:Me18S-A1374 | DRSC16232 | 75105 | 58910 | 57295 | 60190 | 7085 | inactive
Prosbeta2R1 (GeneID 31511) | DRSC18154 | 1.24e5 | 1.38e5 | 2.25e5 | 2.95e5 | 10075 | inactive
serp (GeneID 40150) | DRSC11035 | 92395 | 92660 | 96045 | 69135 | 10365 | inactive
serp (GeneID 40150) | DRSC11036 | 45505 | 46445 | 33890 | 33615 | 4235 | inactive
CG5510 (GeneID 42872) | DRSC15823 | 1.70e5 | 1.56e5 | 2.40e5 | 2.17e5 | 14035 | inactive
SdhAL (GeneID 39348) | DRSC10539 | 1.15e5 | 91240 | 72880 | 30095 | 9800 | inactive
Rpp14b (GeneID 43578) | DRSC15063 | 1.55e5 | 1.23e5 | 2.04e5 | 2.22e5 | 13720 | inactive
CG18659 (GeneID 35929) | DRSC06784 | 1.85e5 | 1.64e5 | 1.84e5 | 1.99e5 | 14290 | inactive
Uvrag (GeneID 34735) | DRSC02932 | 3.10e5 | 2.80e5 | 2.25e5 | 2.13e5 | 21728 | inactive
Or88a (GeneID 41715) | DRSC16770 | 2.06e5 | 2.49e5 | 2.03e5 | 1.85e5 | 19005 | inactive
Elk (GeneID 37047) | DRSC07608 | 97790 | 88280 | 1.56e5 | 1.55e5 | 8860 | inactive
CG17819 (GeneID 42579) | DRSC15279 | 2.14e5 | 1.81e5 | 2.00e5 | 2.02e5 | 14985 | inactive
bcd (GeneID 40830) | DRSC12624 | 1.79e5 | 1.62e5 | 96840 | 82350 | 12195 | inactive
NetB (GeneID 32400) | DRSC20262 | 1.51e5 | 1.65e5 | 2.02e5 | 1.89e5 | 10660 | inactive
Piezo (GeneID 34112) | DRSC03092 | 82415 | 80550 | 77380 | 70235 | 6300 | inactive
CG4461 (GeneID 39074) | DRSC10423 | 1.15e5 | 1.06e5 | 1.47e5 | 1.26e5 | 7175 | inactive
SPH93 (GeneID 35049) | DRSC02978 | 1.46e5 | 1.48e5 | 1.71e5 | 1.72e5 | 11005 | inactive
His2Av (GeneID 43229) | DRSC16702 | 1.12e5 | 1.10e5 | 1.96e5 | 1.72e5 | 8038 | inactive
Muc68Ca (GeneID 2768980) | DRSC10312 | 1.70e5 | 1.49e5 | 2.07e5 | 1.78e5 | 12710 | inactive
Muc68Ca (GeneID 2768980) | DRSC10313 | 1.70e5 | 1.49e5 | 2.55e5 | 1.88e5 | 10465 | inactive
Syngr (GeneID 36533) | DRSC06003 | 82110 | 96675 | 97885 | 97135 | 7080 | inactive
Tina-1 (GeneID 37989) | DRSC04317 | 1.85e5 | 2.10e5 | 1.86e5 | 2.12e5 | 15978 | inactive
CG34426 (GeneID 5740622) | DRSC09977 | 2.56e5 | 2.17e5 | 2.55e5 | 2.30e5 | 15755 | inactive
CG34205 (GeneID 37526) | DRSC04149 | 42660 | 32880 | 32785 | 28245 | 2315 | inactive
CG34205 (GeneID 37526) | DRSC22823 | – | – | – | – | – | active
CG34323 (GeneID 5740207) | DRSC18916 | 77900 | 70630 | 78680 | 62425 | 5285 | inactive
comm (GeneID 39717) | DRSC11336 | 2.84e5 | 2.36e5 | 3.89e5 | 2.99e5 | 10480 | inactive
CG31223 (GeneID 326127) | DRSC15115 | 22745 | 24732 | 24975 | 24275 | 1900 | inactive
Mcm6 (GeneID 31603) | DRSC18680 | 1.78e5 | 1.48e5 | 1.69e5 | 1.59e5 | 12825 | inactive
Gfat1 (GeneID 3354921) | DRSC21219 | 1.24e5 | 1.16e5 | 1.47e5 | 1.69e5 | 12135 | inactive
CG5863 (GeneID 42096) | DRSC15898 | 2.02e5 | 2.24e5 | 2.01e5 | 1.75e5 | 16115 | inactive
CG12926 (GeneID 35996) | DRSC06239 | 1.66e5 | 1.24e5 | 1.96e5 | 1.65e5 | 11995 | inactive
CG12926 (GeneID 35996) | DRSC21930 | – | – | – | – | – | inactive
Sirt7 (GeneID 43433) | DRSC14294 | 1.90e5 | 2.06e5 | 2.84e5 | 2.96e5 | 14100 | inactive
CG33502 + CG32857 + CG32500 | DRSC20817 | 2.27e5 | 2.31e5 | 4.22e5 | 3.45e5 | 20050 | inactive
CG33502 + CG32857 + CG32500 | DRSC21038 | 93880 | 1.02e5 | 1.27e5 | 1.41e5 | 11450 | inactive
Taf6 (GeneID 40134) | DRSC11299 | 50110 | 65045 | 27820 | 33405 | 3025 | inactive
PPO3 (GeneID 44513) | DRSC04325 | 2.00e5 | 1.65e5 | 1.68e5 | 1.85e5 | 13945 | inactive
Fkbp14 (GeneID 37449) | DRSC04615 | 1.51e5 | 1.76e5 | 1.25e5 | 1.35e5 | 12695 | inactive
CG6709 + Hez | DRSC10165 | 2.00e5 | 1.62e5 | 2.55e5 | 2.11e5 | 10255 | inactive
CG6709 + Hez | DRSC10698 | 1.98e5 | 1.76e5 | 3.40e5 | 2.85e5 | 9990 | inactive
